Test results published in publication doi:10.1101/2020.01.01.892539.

Sequences of proteins named here, by UniProt entry; tags and fusion partners are left off. Residues count along the entry.
UniProt P20029, residues 20-655: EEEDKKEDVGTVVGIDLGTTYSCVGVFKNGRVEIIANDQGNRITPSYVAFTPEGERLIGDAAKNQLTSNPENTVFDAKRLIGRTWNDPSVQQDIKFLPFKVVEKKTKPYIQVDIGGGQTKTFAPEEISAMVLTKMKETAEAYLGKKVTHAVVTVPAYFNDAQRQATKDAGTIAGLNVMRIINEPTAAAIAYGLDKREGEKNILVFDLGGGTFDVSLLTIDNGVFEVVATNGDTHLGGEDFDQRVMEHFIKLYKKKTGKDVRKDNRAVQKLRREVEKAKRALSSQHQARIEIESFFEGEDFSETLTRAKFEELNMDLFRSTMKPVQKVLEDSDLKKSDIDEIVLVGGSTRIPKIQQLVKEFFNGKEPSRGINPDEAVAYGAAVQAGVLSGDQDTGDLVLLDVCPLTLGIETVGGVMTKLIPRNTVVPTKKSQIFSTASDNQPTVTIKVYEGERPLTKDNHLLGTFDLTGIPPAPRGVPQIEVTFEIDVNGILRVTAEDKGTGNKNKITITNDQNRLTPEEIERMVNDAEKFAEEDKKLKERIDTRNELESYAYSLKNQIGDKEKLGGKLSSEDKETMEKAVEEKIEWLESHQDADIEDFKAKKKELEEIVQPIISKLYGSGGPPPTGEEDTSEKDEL
UniProt P08113, residues 22-802: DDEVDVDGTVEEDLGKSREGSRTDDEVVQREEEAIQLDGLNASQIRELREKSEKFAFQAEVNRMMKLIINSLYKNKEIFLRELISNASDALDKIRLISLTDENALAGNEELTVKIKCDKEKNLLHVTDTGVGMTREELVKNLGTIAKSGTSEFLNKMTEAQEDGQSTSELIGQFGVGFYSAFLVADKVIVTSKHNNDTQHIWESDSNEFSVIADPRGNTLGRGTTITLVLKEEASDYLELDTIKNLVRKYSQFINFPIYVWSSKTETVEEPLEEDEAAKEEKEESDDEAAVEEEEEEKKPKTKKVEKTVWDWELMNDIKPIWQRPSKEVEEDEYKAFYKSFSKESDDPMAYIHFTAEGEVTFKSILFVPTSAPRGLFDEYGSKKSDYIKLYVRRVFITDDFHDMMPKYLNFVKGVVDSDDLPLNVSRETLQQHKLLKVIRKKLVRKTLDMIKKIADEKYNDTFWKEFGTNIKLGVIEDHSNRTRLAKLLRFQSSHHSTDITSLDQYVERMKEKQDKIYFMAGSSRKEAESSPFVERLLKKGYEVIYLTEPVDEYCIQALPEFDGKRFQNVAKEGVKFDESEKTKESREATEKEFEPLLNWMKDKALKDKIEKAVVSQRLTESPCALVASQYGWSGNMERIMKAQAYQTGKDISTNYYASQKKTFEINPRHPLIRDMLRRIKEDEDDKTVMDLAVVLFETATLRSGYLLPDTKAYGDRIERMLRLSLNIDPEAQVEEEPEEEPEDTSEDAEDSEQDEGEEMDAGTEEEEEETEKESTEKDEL

Target: BiP-FLAG (BiP/GRP78 with a 3xFLAG tag inserted just upstream of the KDEL signal) (mouse) (UniProt P20029)
Assay: affinity purification with mass spectrometry

Molecule: EGF receptor (from UniProt Q01279 25-1210)
- binding: binds

Molecule: Grp94 (from UniProt P08113 22-802)
- binding: binds

B1: apolipoprotein H (protein, UniProt Q01339 20-345)
chain: GRICPKPDDLPFATVVPLKTSYDPGEQIVYSCKPGYVSRGGMRRFTCPLTGMWPINTLRCVPRVCPFAGILENGIVRYTSFEYPKNISFACNPGFFLNGTSSSKCTEEGKWSPDIPACARITCPPPPVPKFALLKDYRPSAGNNSLYQDTVVFKCLPHFAMIGNDTVMCTEQGNWTRLPECLEVKCPFPPRPENGYVNYPAKPVLLYKDKATFGCHETYKLDGPEEAECTKTGTWSFLPTCRESCKLPVKKATVLYQGMRVKIQEQFKNGMMHGDKIHFYCKNKEKKCSYTVEAHCRDGTIEIPSCFKEHSSLAFWKTDASELTPC
- binding: binds

B4: GRP170 (protein, UniProt Q9JKR6 33-999)
chain: LAVMSVDLGSESMKVAIVKPGVPMEIVLNKESRRKTPVTVTLKENERFLGDSAAGMAIKNPKATLRYFQHLLGKQADNPHVALYRSRFPEHELIVDPQRQTVRFQISPQLQFSPEEVLGMVLNYSRSLAEDFAEQPIKDAVITVPAFFNQAERRAVLQAARMAGLKVLQLINDNTATALSYGVFRRKDINSTAQNVMFYDMGSGSTVCTIVTYQTVKTKEAGMQPQLQIRGVGFDRTLGGLEMELRLREHLAKLFNEQRKGQKAKDVRENPRAMAKLLREANRLKTVLSANADHMAQIEGLMDDVDFKAKVTRVEFEELCADLFDRVPGPVQQALQSAEMSLDQIEQVILVGGATRVPKVQEVLLKAVGKEELGKNINADEAAAMGAVYQAAALSKAFKVKPFVVRDAVIYPILVEFTREVEEEPGLRSLKHNKRVLFSRMGPYPQRKVITFNRYSHDFNFHINYGDLGFLGPEDLRVFGSQNLTTVKLKGVGESFKKYPDYESKGIKAHFNLDESGVLSLDRVESVFETLVEDSPEEESTLTKLGNTISSLFGGGTSSDAKENGTDAVQEEEESPAEGSKDEPAEQGELKEEAEPPAEETSQPPPSEPKGDAAREGEKPDEKESGDKPEAQKPNEKGQAGPEGAAPAPEEDKKPKPARKQKMVEEIGVELAVLDLPDLPEDELARSVQKLEELTLRDLEKQEREKAANSLEAFIFETQDKLYQPEYQEVSTEEQREEISGKLSATSTWLEDEGFGATTVMLKDKLAELRKLCQGLFFRVEERRKWPERLSALDNLLNHSSIFLKGARLIPEMDQVFTEVEMTTLEKVINDTWAWKNATLAEQAKLPATEKPVLLSKDIEAKMMALDREVQYLLNKAKFTKPRPRPKDKNGTRAEPPLNASAGDQEEKVIPPAGQTEEAKPILEPDKEETGTEPADSEPLELGGPGAGPEQEEQSAGQKRPSKNDEL
- binding: binds

More lines, now with the values ahead:

- binding: binds
B2: P58^IPK (protein, UniProt Q91YW3 32-504)
chain: GVNADVEKHLELGKKLLAAGQLADALSQFHAAVDGDPDNYIAYYRRATVFLAMGKSKAALPDLTKVIALKMDFTAARLQRGHLLLKQGKLDEAEDDFKKVLKSNPSEQEEKEAESQLVKADEMQRLRSQALDAFDGADYTAAITFLDKILEVCVWDAELRELRAECFIKEGEPRKAISDLKAASKLKSDNTEAFYKISTLYYQLGDHELSLSEVRECLKLDQDHKRCFAHYKQVKKLNKLIESAEELIRDGRYTDATSKYESVMKTEPSVAEYTVRSKERICHCFSKDEKPVEAIRICSEVLQMEPDNVNALKDRAEAYLIEEMYDEAIQDYEAAQEHNENDQQIREGLEKAQRLLKQSQKRDYYKILGVKRNAKKQEIIKAYRKLALQWHPDNFQNEEEKKKAEKKFIDIAAAKEVLSDPEMRKKFDDGEDPLDAESQQGGGGNPFHRSWNSWQGFNPFSSGGPFRFKFHFN

- binding: binds
B3: ceruloplasmin (protein, UniProt Q61147 20-1061)
chain: RDKHYFIGITEAVWDYASGTEEKKLISVDTEQSNFYLQNGPDRIGRKYKKALYFEYTDGTFSKTIDKPAWLGFLGPVIKAEVEDKVYVHLKNLASRIYTFHAHGVTYTKEYEGAVYPDNTTDFQRADDKVLPGQQYVYVLHANEPSPGEGDSNCVTRIYHSHVDAPKDIASGLIGPLILCKKGSLYKEKEKNIDQEFVLMFSVVDENLSWYLEDNIKTFCSEPEKVDKDNEDFQESNRMYSINGYTFGSLPGLSMCAADRVKWYLFGMGNEVDVHSAFFHGQALTSRNYQTDIINLFPATLIDAYMVAQNPGVWMLSCQNLNHLKAGLQAFFQVRDCNKPSPEDNIQDRHVRHYYIAAEEVIWNYAPSGTDIFTGENLTALESDSRVFFEQGATRIGGSYKKMAYREYTDGSFTNRKQRGPDEEHLGILGPVIWAEVGDTIKVTFHNKGQHPLSIQPMGVSFTAENEGTYYGPPGRSSQQAASHVAPKETFTYEWTVPKEMGPTYADPVCLSKMYYSGVDPTKDIFTGLIGPMKICKKGSLLADGRQKDVDKEFYLFPTVFDENESLLLDDNIRMFTTAPDQVDKEDEDFQESNKMHSMNGFMYGNQPGLNMCLGESIVWYLFSAGNEADVHGIYFSGNTYLSKGERRDTANLFPHKSLTLLMNPDTKGTFDVECLTTDHYTGGMKQKYTVNQCQRQFEDFTVYLGERTYYVAAVEVEWDYSPSRAWEKELHHLQEQNVSNVFLDKEEFFIGSKYKKVVYRQFTDSSFREQVKRRAEDEHLGILGPPIHANVGDKVKVVFKNMATRPYSIHAHGVKTESSTVVPTLPGEVRTYTWQIPERSGAGREDSACIPWAYYSTVDRVKDLYSGLIGPLIVCRKSYVKVFSPKKKMEFFLLFLVFDENESWYLDDNIKTYSEHPEKVNKDNEEFLESNKMHAINGKMFGNLQGLTMHVKDEVNWYVMGMGNEIDLHTVHFHGHSFQYKHRGVYSSDVFDLFPGTYQTLEMFPQTPGTWLLHCHVTDHVHAGMATTYTVLPVEQETKSG

These are yes or no findings as the source states them, for the method shown. In cells and extracts the contact can be indirect. Here binding means that the protein was enriched with, or labelled near, the bait; the list need not be complete. Each block holds one molecule with its values, some of them ahead of it.
